The structures given here were assigned with low confidence; some may be wrong.

By UniProt entry, the sequences of proteins in these tests, tags left out. Residues count along the entry.
UniProt Q9UM73, 19-1620 I1171N/D1203N limits assumed: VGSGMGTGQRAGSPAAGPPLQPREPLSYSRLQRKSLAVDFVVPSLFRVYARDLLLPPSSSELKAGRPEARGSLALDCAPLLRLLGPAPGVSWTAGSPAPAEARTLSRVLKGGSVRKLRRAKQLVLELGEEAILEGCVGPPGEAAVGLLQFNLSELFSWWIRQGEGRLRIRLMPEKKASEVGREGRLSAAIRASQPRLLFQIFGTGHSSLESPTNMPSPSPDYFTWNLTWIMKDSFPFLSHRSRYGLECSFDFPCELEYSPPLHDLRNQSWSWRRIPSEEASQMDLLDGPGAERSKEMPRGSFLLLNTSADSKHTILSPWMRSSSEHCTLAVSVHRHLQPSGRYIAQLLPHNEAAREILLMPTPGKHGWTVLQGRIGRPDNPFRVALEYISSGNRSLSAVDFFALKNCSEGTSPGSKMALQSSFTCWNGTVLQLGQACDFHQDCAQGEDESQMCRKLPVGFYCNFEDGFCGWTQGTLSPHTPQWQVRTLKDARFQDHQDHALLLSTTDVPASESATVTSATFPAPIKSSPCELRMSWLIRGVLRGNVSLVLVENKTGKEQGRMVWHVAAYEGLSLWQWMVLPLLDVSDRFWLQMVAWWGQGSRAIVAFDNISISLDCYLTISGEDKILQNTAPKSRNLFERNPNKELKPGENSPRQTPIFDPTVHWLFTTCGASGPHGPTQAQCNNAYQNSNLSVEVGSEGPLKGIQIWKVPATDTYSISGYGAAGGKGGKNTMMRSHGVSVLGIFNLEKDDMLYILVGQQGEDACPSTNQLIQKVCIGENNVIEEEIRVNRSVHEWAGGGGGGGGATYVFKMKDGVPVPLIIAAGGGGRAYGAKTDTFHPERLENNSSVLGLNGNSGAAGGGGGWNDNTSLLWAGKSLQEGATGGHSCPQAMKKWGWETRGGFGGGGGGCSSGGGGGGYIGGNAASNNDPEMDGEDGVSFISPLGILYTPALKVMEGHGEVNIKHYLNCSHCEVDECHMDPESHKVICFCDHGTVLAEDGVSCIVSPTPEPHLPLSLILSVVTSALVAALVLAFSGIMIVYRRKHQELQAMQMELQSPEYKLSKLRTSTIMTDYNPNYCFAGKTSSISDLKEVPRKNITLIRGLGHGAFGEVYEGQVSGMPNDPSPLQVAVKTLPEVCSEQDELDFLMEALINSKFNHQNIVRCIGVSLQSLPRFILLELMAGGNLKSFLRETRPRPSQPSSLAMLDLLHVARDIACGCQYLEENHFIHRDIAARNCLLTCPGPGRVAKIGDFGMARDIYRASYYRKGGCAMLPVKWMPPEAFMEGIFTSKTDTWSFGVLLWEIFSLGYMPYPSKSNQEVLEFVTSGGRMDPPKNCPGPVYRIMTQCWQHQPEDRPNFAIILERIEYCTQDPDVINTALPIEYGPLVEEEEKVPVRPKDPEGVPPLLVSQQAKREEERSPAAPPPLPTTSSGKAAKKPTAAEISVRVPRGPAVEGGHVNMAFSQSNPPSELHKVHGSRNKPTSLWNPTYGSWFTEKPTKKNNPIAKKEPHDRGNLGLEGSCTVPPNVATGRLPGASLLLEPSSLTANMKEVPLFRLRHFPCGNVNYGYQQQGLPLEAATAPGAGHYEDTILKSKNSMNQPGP
UniProt Q9UM73, 19-1620 L1196M/G1202R limits assumed: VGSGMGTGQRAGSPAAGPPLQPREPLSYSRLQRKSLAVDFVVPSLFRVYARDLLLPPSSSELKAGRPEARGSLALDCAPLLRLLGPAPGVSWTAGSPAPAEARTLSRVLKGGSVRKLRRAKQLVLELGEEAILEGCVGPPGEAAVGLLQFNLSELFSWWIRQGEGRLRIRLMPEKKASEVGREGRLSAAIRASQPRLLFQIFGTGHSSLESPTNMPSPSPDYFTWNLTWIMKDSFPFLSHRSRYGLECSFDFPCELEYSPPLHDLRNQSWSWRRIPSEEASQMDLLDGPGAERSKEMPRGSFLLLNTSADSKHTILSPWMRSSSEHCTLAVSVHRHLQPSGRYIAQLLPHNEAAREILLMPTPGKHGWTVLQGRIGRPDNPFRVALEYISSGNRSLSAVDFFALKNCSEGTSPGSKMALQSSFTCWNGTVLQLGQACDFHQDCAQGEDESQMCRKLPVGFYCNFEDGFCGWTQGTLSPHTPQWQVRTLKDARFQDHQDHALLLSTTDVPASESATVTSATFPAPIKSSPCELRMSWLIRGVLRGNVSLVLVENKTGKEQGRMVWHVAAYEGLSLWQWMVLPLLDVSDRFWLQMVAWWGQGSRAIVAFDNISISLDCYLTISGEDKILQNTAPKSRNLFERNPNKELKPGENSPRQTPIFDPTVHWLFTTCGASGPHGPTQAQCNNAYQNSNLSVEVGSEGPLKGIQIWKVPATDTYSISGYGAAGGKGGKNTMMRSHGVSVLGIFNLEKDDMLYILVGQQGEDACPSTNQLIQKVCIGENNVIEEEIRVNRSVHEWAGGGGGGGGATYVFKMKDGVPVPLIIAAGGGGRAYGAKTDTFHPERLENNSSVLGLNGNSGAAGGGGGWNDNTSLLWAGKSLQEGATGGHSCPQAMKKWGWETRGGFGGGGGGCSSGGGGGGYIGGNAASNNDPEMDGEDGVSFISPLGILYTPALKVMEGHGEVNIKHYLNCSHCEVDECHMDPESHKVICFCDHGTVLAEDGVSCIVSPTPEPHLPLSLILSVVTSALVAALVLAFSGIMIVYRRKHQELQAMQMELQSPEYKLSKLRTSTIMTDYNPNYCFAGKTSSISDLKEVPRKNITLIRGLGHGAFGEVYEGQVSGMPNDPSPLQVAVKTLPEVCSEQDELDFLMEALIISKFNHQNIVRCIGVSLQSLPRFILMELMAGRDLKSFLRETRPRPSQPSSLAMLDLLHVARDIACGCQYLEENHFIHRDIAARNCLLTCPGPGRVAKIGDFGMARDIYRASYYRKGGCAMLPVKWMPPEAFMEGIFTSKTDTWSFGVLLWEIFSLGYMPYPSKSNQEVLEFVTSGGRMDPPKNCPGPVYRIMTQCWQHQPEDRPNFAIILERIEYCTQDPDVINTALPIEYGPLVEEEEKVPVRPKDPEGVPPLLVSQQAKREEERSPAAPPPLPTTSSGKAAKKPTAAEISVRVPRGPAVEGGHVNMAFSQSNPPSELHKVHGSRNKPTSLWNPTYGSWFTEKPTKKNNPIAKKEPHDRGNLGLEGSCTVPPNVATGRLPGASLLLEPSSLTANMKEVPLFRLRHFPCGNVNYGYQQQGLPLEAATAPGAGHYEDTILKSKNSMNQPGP

Our source for the IC50 values is EP4831180A1, “NOVEL KINASE INHIBITOR” (dated 2026).

One test concerns the target His-ALK^I1171N/D1203N (Homo sapiens, UniProt Q9UM73, D1203N/I1171N). Briefly: ALK I1171N/D1203N compound mutant kinase inhibitory activity assay (HTRF). To be noted: read-out: ALK^I1171N/D1203N Enzyme, IC50, ATP 1 µM, enzyme 0.3 nM, 1 hour at 23 °C. For orientation: In TR-FRET formats the signal depends on donor and acceptor labels being close together.
The next test deals with His-ALK^G1202R/L1196M (Homo sapiens, UniProt Q9UM73, G1202R/L1196M). As to the kind of experiment: ALK G1202R/L1196M compound mutant kinase inhibitory activity assay (HTRF). Particulars: read-out: ALK^G1202R/L1196M Enzyme, IC50, ATP 4 µM, enzyme 0.5 nM, 1 hour at 23 °C.
Test [1] has as its system Baf3 EML4-ALK V1^I1171N/D1203N cells. To be noted: read-out: BaF3 EML4-ALK^I1171N/D1203N IC50; 3 days incubation, Cell-Titer Glo.
For test [2], the system named is Baf3 EML4-ALK V1^G1202R/L1196M cells. Particulars: read-out: BaF3 EML4-ALK^G1102R/L1196M, IC50; 3 days incubation, Cell-Titer Glo.

Consider `CCn1nc(C#C[C@H](C)N)c2c1-c1cnc(N)c(c1)O[C@H](C)c1cc(F)ccc1-c1nn(C)cc1C2`, for which the IC50 at His-ALK^I1171N/D1203N is less than 5 nM; at His-ALK^G1202R/L1196M, less than 5 nM; in test [1] it was less than 10 nM; in test [2], less than 10 nM.
